This assay concerns the target T1, OfHex1-His (β-N-acetyl-D-hexosaminidase Hex1 from Ostrinia furnacalis) (Ostrinia furnacalis) (UniProt Q06GJ0).
T1 sequence: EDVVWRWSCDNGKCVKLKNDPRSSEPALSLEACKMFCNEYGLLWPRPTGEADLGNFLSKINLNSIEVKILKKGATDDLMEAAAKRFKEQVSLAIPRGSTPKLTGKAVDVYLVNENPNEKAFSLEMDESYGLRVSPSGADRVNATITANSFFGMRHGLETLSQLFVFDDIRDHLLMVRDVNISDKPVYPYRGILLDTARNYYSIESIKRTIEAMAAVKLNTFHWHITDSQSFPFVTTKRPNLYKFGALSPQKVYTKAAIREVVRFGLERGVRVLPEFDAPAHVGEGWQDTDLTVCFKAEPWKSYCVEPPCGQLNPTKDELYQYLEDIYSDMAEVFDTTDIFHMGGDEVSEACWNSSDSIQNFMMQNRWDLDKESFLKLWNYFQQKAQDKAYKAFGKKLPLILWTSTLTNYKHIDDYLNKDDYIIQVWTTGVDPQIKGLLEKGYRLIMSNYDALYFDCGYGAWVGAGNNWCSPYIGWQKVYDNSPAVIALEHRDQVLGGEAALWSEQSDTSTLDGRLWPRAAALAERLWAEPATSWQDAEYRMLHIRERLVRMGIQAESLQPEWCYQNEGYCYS
The assay is described as follows: pull-down; purified OfHex1-His in binding buffer (20 mM sodium phosphate, 0.5 M NaCl, pH 7.4) incubated 4 h with B. mori molting fluid, then held on Ni-NTA beads 1 h; washed with binding buffer and with 75 mM imidazole, eluted with 250 mM imidazole; Hex3 detected by western blot with Hex3 antibody; only the target purified. (Immunoblotting shows a protein as a band on a membrane.)

These are yes or no findings as the source states them, for the method shown. Binding seen in cells or lysates may run through a third protein. A result given as binding can be weak or reduced; the word gives no strength. Sequences can lack the tags named with a protein.

For “BmHex3 (β-N-acetyl-D-hexosaminidase Hex3 from Bombyx mori) (enzyme)”, the binding entry is on record as “binds”.

Values taken from PMC3741120, “A Sperm–Plasma β-N-Acetyl-D-Hexosaminidase Interacting with a Chitinolytic β-N-Acetyl-D-Hexosaminidase in Insect Molting Fluid” (PLoS ONE, 2013).
